Data from PubChem BioAssay AID504444 (National Center for Advancing Translational Sciences (NCATS), 2011).
Out of some 360,000 compounds screened, about 7,500 (2.1%) were called active. Inconclusive results, whose numbers are uncertain, are shown with a selection of clear calls. Calls follow the shape of the dose curve; as a rule, active = well fitted inhibition curve with a large enough effect; inconclusive = small, poorly fitted or top-dose-only effect, or effect the other way; inactive = flat fitted curve, though single readings scatter. Potencies beside an inconclusive call are fits to weak or partial responses and may not hold up.

Assay: Nrf2 qHTS screen for inhibitors; also: nearly all actives have a fitted effect of over 60% in size
Conditions: A549 ARE-Fluc reporter, luciferase luminescence, 18-24 h; activity change, negative = inhibition: at 46 µM (top of the series)
Summary of the method: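 In this cell-based qHTS, ARE-driven firefly luciferase in A549 cells reports Nrf2 activity; the luminescent signal after BugLite lysis is the measured value, with a prior CellTiter-Fluor read for cell health.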
% is scaled to controls: 0 for no effect and ±100 for the full control effect; potency is read from the fitted curve at half-maximal effect.

| Structure (SMILES) | Potency | activity change, negative = inhibition |
| --- | --- | --- |
| CC(C)N1CCN(Cc2ccc3nsnc3c2)CC1CCO (configuration not stated) | inconclusive: 18.4 µM [activator, single point] | – |
| CSc1ccc(NC(=O)Nc2cccn(Cc3ccccc3)c2=O)cc1 | active: 11.6 µM | – |
| Brc1ccc(N=Nc2ccc3ccccc3n2)cc1 | inconclusive: 3.66 µM [activator, partial curve, poor fit] | – |
| O=C(COC(=O)c1cc(S(=O)(=O)N2CCOCC2)ccc1F)NCc1ccco1 | inconclusive: 25.9 µM [activator, partial curve, poor fit] | – |
| O=C(CCl)Nc1c(C(=O)Nc2ccc3c(c2)OCCO3)oc2ccccc12 | inconclusive: 25.9 µM [activator, partial curve, poor fit] | – |
| CCCCCCNS(=O)(=O)c1ccc(OC)c(OC)c1 | inconclusive: 2.91 µM [falling, partial curve, poor fit] | – |
| O=C(/C=C/c1ccccc1)NC(=S)NNC(=O)c1ccco1 | inconclusive: 6.51 µM [activator, single point] | – |
| O=C(COc1cc(Cl)c(Cl)cc1Cl)Nc1ccc([N+](=O)[O-])cc1Cl | inconclusive: 7.31 µM [activator, partial curve] | – |
| COc1ccc(N(CC(=O)NC2CCCC2)C(=O)CCC(=O)Nc2cc(C)on2)cc1OC | – | inactive: -2.27% |
| COc1ccc(C2=NN(C(=O)CSc3nnc(C)c(=O)n3N)C(c3ccco3)C2)cc1 (configuration not stated) | inconclusive: 20.6 µM [falling, partial curve] | – |
| COC(=O)/C(=C1/Oc2ccc(C)cc2S1)C(F)(F)F | inconclusive: 2.91 µM [activator, full curve, poor fit] | – |
| COc1cc(Cl)ccc1OCc1cc(C(=O)NCC(C)c2ccccc2)no1 (configuration not stated) | – | inactive: 7.7% |
| Cn1cccc1C(=O)NCC1COc2ccccc2O1 (configuration not stated) | inconclusive: 5.8 µM [activator, partial curve] | – |
| COc1ccccc1C1CC(c2cccs2)=Nc2ccccc2S1 (configuration not stated) | – | inactive: 16.2% |
| O=C(CSc1nnc2c(n1)[nH]c1ccccc12)NC1CCCCC1 | active: 3.66 µM | – |
| CCn1cc(CNC(=O)c2cccc([N+](=O)[O-])c2)c(C)n1 | inconclusive: 0.0461 µM [falling, full curve] | – |
| CCn1c(=O)c2cc(C(=O)N3CCN(c4cccc(Cl)c4)CC3)sc2c2ccccc21 | – | inactive: -19.3% |
| COC(=O)c1c(C)oc(C)c1S(=O)(=O)N1CCCCC1 | – | inactive: 7.79% |
| CCc1ccc2[nH]c3nc(N/N=C/c4ccc(O)cc4O)nnc3c2c1 | inconclusive: 29.1 µM [falling, single point] | – |
| CCc1nnc(NC(=O)c2ccc(S(=O)(=O)N(C)Cc3ccccc3)cc2)o1 | active: 7.31 µM | – |
| OCCC1CN(Cc2nc(-c3ccc(F)cc3)cs2)CCN1CCc1ccccc1 (configuration not stated) | inconclusive: 29.1 µM [falling, single point] | – |

Fetched by structure from above (three):

| Structure (SMILES) | Potency | activity change, negative = inhibition |
| --- | --- | --- |
| O=C(CSc1nnc2c(n1)[nH]c1ccccc12)NC1CCCCC1 | active: 3.66 µM | – |
| O=C(CCl)Nc1c(C(=O)Nc2ccc3c(c2)OCCO3)oc2ccccc12 | inconclusive: 25.9 µM [activator, partial curve, poor fit] | – |
| COC(=O)/C(=C1/Oc2ccc(C)cc2S1)C(F)(F)F | inconclusive: 2.91 µM [activator, full curve, poor fit] | – |

The list continues:

| Structure (SMILES) | Potency | activity change, negative = inhibition |
| --- | --- | --- |
| C/C(=N\N1CCN(Cc2ccc(Cl)cc2)CC1)c1ccc([N+](=O)[O-])cc1 | inconclusive: 29.1 µM [falling, single point] | – |
| Cc1ccc(Cn2c(C3CCCN3c3nc(-c4ccc(F)cc4)cs3)nc3cc(C(=O)NCCCO)ccc32)cc1 (configuration not stated) | inconclusive: 2.59 µM [falling, full curve] | – |
| CCOC(=O)C1=C(C)NC2=C(C(=O)CCC2)C1c1cccnc1 (configuration not stated) | – | inactive: -12.9% |
| CC12CC3(C)CC(C)(C1)CC(C(=O)NC1=NCCS1)(C2)C3 | inconclusive: 2.31 µM [falling, partial curve, poor fit] | – |
| CCCCCOC(=O)CSc1nc2c(c(=O)[nH]c(=O)n2C)n1CCc1ccccc1 | inconclusive: 18.4 µM [activator, single point] | – |
| COCCCNC(=O)C1CCN(C(=O)c2cc3sccc3n2Cc2ccc(F)cc2)CC1 | inconclusive: 29.1 µM [falling, partial curve, poor fit] | – |
| CC1(C(=O)NC(=S)NNC(=O)c2ccncc2)CCCCC1 | inconclusive: 18.4 µM [falling, single point] | – |
| O=C(CCN1C(=O)/C(=C/c2ccccc2)SC1=S)NCCCN1CCOCC1 | inconclusive: 18.4 µM [activator, single point] | – |
| CCOc1cc(S(=O)(=O)Nc2cc(C)cc(C)c2)ccc1Cl | inconclusive: 23.1 µM [falling, single point] | – |
| O=C(Nc1nnc(SCC(=O)N2CCCc3ccccc32)s1)c1cccc2ccccc12 | – | inactive: 10.3% |
| NS(=O)(=O)c1ccc(N/C=C/C(=O)c2ccc(Br)cc2)cc1 | inconclusive: 3.66 µM [activator, full curve, poor fit] | – |
| COc1ccc(N(CCCN2C(=O)c3cccc4cccc(c34)C2=O)C(=O)c2cccnc2)cc1 | inconclusive: 16.4 µM [falling, single point] | – |
| CCCCCCn1c(=O)[nH]c2nc3cc(N)c(C)cc3nc2c1=O | inconclusive: 32.6 µM [falling, single point] | – |
| NNC(=O)CN1CCCc2ccccc21 | inconclusive: 14.6 µM [activator, partial curve] | – |
| Cc1ccc(C(C)C)c(OCCNC(=O)c2cncc(Br)c2)c1 | inconclusive: 18.4 µM [falling, partial curve] | – |
| CCC1CN(S(=O)(=O)c2cc(-c3cc(C)no3)ccc2OC)c2cc(C)ccc2O1 (configuration not stated) | inconclusive: 32.6 µM [falling, partial curve, poor fit] | – |
| CCN1C(=NCC2CC2)N[C@@H](c2cccc(C(F)(F)F)c2)C(C(=O)OC)=C1C | inconclusive: 14.6 µM [activator, single point] | – |
| COc1ccccc1NC(=O)C1=C(C)N(c2ccccc2)C(=S)NC1c1cccc(C(F)(F)F)c1 (configuration not stated) | active: 14.6 µM | – |
| O=C(O)CCCn1cc(NC(=O)c2ccc(F)cc2)cn1 | inconclusive: 4.61 µM [activator, full curve, poor fit] | – |
| CN1C(=O)C(C)(C)c2cc(S(=O)(=O)N3CCCC(C(=O)NCc4ccc(Cl)cc4)C3)ccc21 (configuration not stated) | inconclusive: 20.6 µM [falling, single point] | – |
| Brc1cc2c(cc1/C=N/Nc1nc3ccccc3s1)OCO2 | inconclusive: 5.17 µM [activator, single point] | – |
